Record: PubChem BioAssay AID1224828 (NIAID, 2016)

Purpose: 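Find genes required for NF-kappaB p65 moving into the nucleus after LPS in mouse macrophages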 (primary screen)
Cells: mouse RAW264.7 G9 macrophage reporter cells (GFP-p65, Tnf promoter-mCherry)
Reagent: siRNA pool against mouse genes, 100 nM
Time to read-out: 2 days siRNA transfection, then 40 min LPS before fixation
Conditions: LPS (Salmonella minnesota R595) at 10 ng/ml
Detection: 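Imaged p65 nuclear translocation ratio, normalised to the plate median, converted to robust z-scores and averaged across two replicates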
Direction: p65 translocation robust z-score: higher = more nuclear NF-kappaB p65 after LPS than the plate median; nuclear/cytoplasmic p65 ratio: higher = more nuclear NF-kappaB p65
Call rule: 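Active if robust z is above 3.3 (negative regulators) or below -1.56, the Tlr4 control median (positive regulators); activity score 50 or more; control wells not called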
Meaning of the calls: active = hit (p65 shift raised or lowered); inactive = no clear change
In all, the deposit lists about 17,000 reagents; shown is a part drawn at random. Of all reagents, 762 (4.5%) were called active. 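Active calls include both raised and lowered p65 entry, mostly lowered; wells with fewer than 50 cells lack a z-score.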 Raw values are not corrected between plates. The numbers tell different reagents against one gene apart. No sequences are given here.

no.	target gene	pool no.	p65 translocation robust z-score	nuclear/cytoplasmic p65 ratio, rep 1	nuclear/cytoplasmic p65 ratio, rep 2	low cell count flag	Outcome
1	Exoc4	1		1.19	1.04	fewer than 50 cells per well; well left out of scoring	inactive
2	Or9s23	1	-1.35	1.39	1.26	enough cells to score	inactive
3	Tars2	1	-0.22	1.38	1.42	enough cells to score	inactive
4	Zfpm1	1	-0.94	1.29	1.14	enough cells to score	inactive
5	4930432E11Rik	1	-0.26	1.23	1.33	enough cells to score	inactive
6	Usp39	1	0.77	1.5	1.3	enough cells to score	inactive
7	Tmod4	1		1.31	1.04	fewer than 50 cells per well; well left out of scoring	inactive
8	Mapkap1	1	0.17	1.55	1.8	enough cells to score	inactive
9	Mapkap1	2	0.15	1.4	1.37	enough cells to score	inactive
10	Lamp2	1	1.45	1.69	1.55	enough cells to score	inactive
11	Mtmr4	1	-0.51	1.22	1.28	enough cells to score	inactive
12	Nap1l3	1	1.63	1.79	2.05	enough cells to score	inactive
13	Mycbp2	1		1.32	1.26	fewer than 50 cells per well; well left out of scoring	inactive
14	Vps4a	1	-0.56	1.33	1.16	enough cells to score	inactive
15	Cdc42bpb	1	0.71	1.77	1.5	enough cells to score	inactive
16	Cyp2c39	1	-0.11	1.55	1.77	enough cells to score	inactive
17	Shc1	1	-0.81	1.44	1.27	enough cells to score	inactive
18	Got2	1	1.41	1.55	1.76	enough cells to score	inactive
19	Insig2	1	1.37	1.64	1.58	enough cells to score	inactive
20	Cd52	1	-1.24	1.5	1.48	enough cells to score	inactive
21	Pim3	1	0.09	1.51	1.39	enough cells to score	inactive
22	Or51h5	1		1.36	1.28	fewer than 50 cells per well; well left out of scoring	inactive
23	Dok1	1	-0.88	1.54	1.28	enough cells to score	inactive
24	Luzp2	1	-1.17	1.61	1.31	enough cells to score	inactive
25	Dbp	1	-0.01	1.49	1.35	enough cells to score	inactive
26	Schip1	1	1.48	1.63	1.37	enough cells to score	inactive
27	Pex5	1	0.92	1.54	1.56	enough cells to score	inactive
28	Otulinl	1	1.64	1.73	1.68	enough cells to score	inactive
29	Or52h1	1	0.95	1.58	1.37	enough cells to score	inactive
30	Dhx40	1	0.35	1.52	1.41	enough cells to score	inactive
31	N4bp1	1	-0.55	1.48	1.77	enough cells to score	inactive
32	Apbb2	1	0.91	1.59	1.78	enough cells to score	inactive
33	Cd7	1	-0.45	1.49	1.33	enough cells to score	inactive
34	Abhd6	1	1.07	1.9	1.65	enough cells to score	inactive
35	Dzip1	1	-1.67	1.23	1.19	enough cells to score	active
36	4931432E15Rik	1		1.28	1.11	fewer than 50 cells per well; well left out of scoring	inactive
37	Gli1	1	-0.25	1.36	1.38	enough cells to score	inactive
38	Dpf1	1	-0.92	1.65	1.44	enough cells to score	inactive
39	Fpr-rs4	1	0.83	1.67	1.62	enough cells to score	inactive
40	Ldhd	1	0.46	1.58	1.53	enough cells to score	inactive
41	Abr	1	-0.79	1.54	1.45	enough cells to score	inactive
42	Tmem14c	1	-0.17	1.32	1.2	enough cells to score	inactive
43	Srf	1	-1.21	1.32	1.44	enough cells to score	inactive
44	Dock11	1		1.34	1.46	fewer than 50 cells per well; well left out of scoring	inactive
45	Kcnrg	1	1.4	1.65	1.55	enough cells to score	inactive
46	Cyp4a10	1	-2.25	1.25	1.41	enough cells to score	active
47	Pla2g6	1	-0.84	1.42	1.26	enough cells to score	inactive
48	Mns1	1	1.33	1.91	1.87	enough cells to score	inactive
49	Zfp759	1	-1.26	1.48	1.53	enough cells to score	inactive
50	Khdc4	1	0.71	1.45	1.6	enough cells to score	inactive
51	Bzw1	1	0.21	1.46	1.38	enough cells to score	inactive
52	Mrgpra3	1	-0.39	1.73	1.52	enough cells to score	inactive
53	Or8b41	1	-0.06	1.36	1.26	enough cells to score	inactive
54	Fcsk	1	1.13	1.94	1.47	enough cells to score	inactive
55	D030022P06RIK	1	-0.43	1.52	1.7	enough cells to score	inactive
56	Txndc16	1	-0.55	1.34	1.34	enough cells to score	inactive
57	Thyn1	1		1.34	1.2	fewer than 50 cells per well; well left out of scoring	inactive
58	Hsbp1	1	1.49	1.69	1.51	enough cells to score	inactive
59	Tmem119	1	0.41	1.66	1.89	enough cells to score	inactive

Not a retest: entries from further up.
no.	target gene	pool no.	p65 translocation robust z-score	nuclear/cytoplasmic p65 ratio, rep 1	nuclear/cytoplasmic p65 ratio, rep 2	low cell count flag	Outcome
16	Cyp2c39	1	-0.11	1.55	1.77	enough cells to score	inactive
17	Shc1	1	-0.81	1.44	1.27	enough cells to score	inactive
18	Got2	1	1.41	1.55	1.76	enough cells to score	inactive
